{"source": "PubChem BioAssay AID652243 (Drosophila RNAi Screening Center, 2013)", "screen": "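Fly regulators of androgen-dependent reporter output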 (primary screen)", "cells": "Drosophila S2R+ cells", "knock-down reagent": "long dsRNA against Drosophila genes", "duration": "72 h (48 h, then 24 h hormone)", "conditions": "synthetic androgen R1881 at 10 nM for 24 h", "measurement": "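Firefly light from an androgen-responsive reporter and Renilla control light per well, raw and unnormalised, for each of two replicates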", "direction": "firefly reporter light: higher = more light from androgen-responsive reporter; Renilla control light: higher = more constitutive control signal (cell number, transfection)", "rule for the call": "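Across duplicate plates, a knock-down whose log firefly/Renilla ratio shifted a set fold down or up from the GFP/LacZ control mean was a hit; the downward cut appears as both 1.5 and 3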", "meaning of the calls": "active = hit: reporter lowered or raised; inactive = no hit", "note": "In all, the deposit lists about 24,000 reagents; below is an unselected part of those with a known target gene and a result. Over the whole deposit, 246 (1%) were called active. 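Plates not normalised; calls are printed but the firefly/Renilla ratio behind them is not deposited; fold cut for lowering reported inconsistently.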 Raw values are not corrected between plates. No sequences are given here. Not stated in the record: the amount of reagent."}
{"gene": "TrpRS (GeneID 45399)", "PubChem SID": "SID104193889", "firefly reporter light, replicate 1": 99428, "firefly reporter light, replicate 2": 1.12e5, "Renilla control light, replicate 1": 1.96e6, "Renilla control light, replicate 2": 1.73e6, "Call": "inactive"}
{"gene": "CG12728 (GeneID 31526)", "PubChem SID": "SID104197675", "firefly reporter light, replicate 1": 1.02e5, "firefly reporter light, replicate 2": 1.10e5, "Renilla control light, replicate 1": 7.81e5, "Renilla control light, replicate 2": 6.34e5, "Call": "inactive"}
{"gene": "Gart (GeneID 33986)", "PubChem SID": "SID104183273", "firefly reporter light, replicate 1": 1.17e5, "firefly reporter light, replicate 2": 1.93e5, "Renilla control light, replicate 1": 1.49e6, "Renilla control light, replicate 2": 2.13e6, "Call": "inactive"}
{"gene": "Gart (GeneID 33986)", "PubChem SID": "SID104204539", "firefly reporter light, replicate 1": 3.45e5, "firefly reporter light, replicate 2": 5.64e5, "Renilla control light, replicate 1": 7.19e5, "Renilla control light, replicate 2": 5.69e5, "Call": "inactive"}
{"gene": "wun (GeneID 35966)", "PubChem SID": "SID104187511", "firefly reporter light, replicate 1": 1.20e6, "firefly reporter light, replicate 2": 1.26e6, "Renilla control light, replicate 1": 2.90e6, "Renilla control light, replicate 2": 2.01e6, "Call": "inactive"}
{"gene": "wun (GeneID 35966)", "PubChem SID": "SID104214286", "Call": "inactive"}
{"gene": "wun (GeneID 35966)", "PubChem SID": "SID104214287", "Call": "inactive"}
{"gene": "CG31760 (GeneID 34642)", "PubChem SID": "SID104182382", "firefly reporter light, replicate 1": 1.39e5, "firefly reporter light, replicate 2": 1.76e5, "Renilla control light, replicate 1": 1.05e6, "Renilla control light, replicate 2": 1.09e6, "Call": "inactive"}
{"gene": "CG31760 (GeneID 34642)", "PubChem SID": "SID104205652", "firefly reporter light, replicate 1": 5.99e5, "firefly reporter light, replicate 2": 5.46e5, "Renilla control light, replicate 1": 6.33e5, "Renilla control light, replicate 2": 5.87e5, "Call": "inactive"}
{"gene": "CG7300 (GeneID 34472)", "PubChem SID": "SID104182836", "firefly reporter light, replicate 1": 1.25e6, "firefly reporter light, replicate 2": 1.51e6, "Renilla control light, replicate 1": 2.44e6, "Renilla control light, replicate 2": 2.03e6, "Call": "inactive"}
{"gene": "CG7300 (GeneID 34472)", "PubChem SID": "SID104206783", "firefly reporter light, replicate 1": 4.30e5, "firefly reporter light, replicate 2": 5.12e5, "Renilla control light, replicate 1": 8.96e5, "Renilla control light, replicate 2": 1.64e6, "Call": "inactive"}
{"gene": "CG8813 (GeneID 33490)", "PubChem SID": "SID104180498", "firefly reporter light, replicate 1": 8.01e5, "firefly reporter light, replicate 2": 5.59e5, "Renilla control light, replicate 1": 2.22e6, "Renilla control light, replicate 2": 1.79e6, "Call": "inactive"}
{"gene": "CG14383 (GeneID 41593)", "PubChem SID": "SID104194633", "firefly reporter light, replicate 1": 34887, "firefly reporter light, replicate 2": 29038, "Renilla control light, replicate 1": 7.32e5, "Renilla control light, replicate 2": 7.65e5, "Call": "inactive"}
{"gene": "SdhBL (GeneID 32887)", "PubChem SID": "SID104199831", "firefly reporter light, replicate 1": 2.82e5, "firefly reporter light, replicate 2": 1.18e5, "Renilla control light, replicate 1": 1.20e6, "Renilla control light, replicate 2": 6.11e5, "Call": "inactive"}
{"gene": "Synd (GeneID 42467)", "PubChem SID": "SID104194908", "firefly reporter light, replicate 1": 2.62e5, "firefly reporter light, replicate 2": 2.35e5, "Renilla control light, replicate 1": 2.87e6, "Renilla control light, replicate 2": 2.88e6, "Call": "inactive"}
{"gene": "daed (GeneID 33398)", "PubChem SID": "SID104180091", "firefly reporter light, replicate 1": 9.70e5, "firefly reporter light, replicate 2": 1.24e6, "Renilla control light, replicate 1": 2.55e6, "Renilla control light, replicate 2": 1.72e6, "Call": "inactive"}
{"gene": "CG7781 (GeneID 34143)", "PubChem SID": "SID104182860", "firefly reporter light, replicate 1": 2.21e5, "firefly reporter light, replicate 2": 1.68e5, "Renilla control light, replicate 1": 2.08e6, "Renilla control light, replicate 2": 1.66e6, "Call": "inactive"}
{"gene": "CG34377 (GeneID 42608)", "PubChem SID": "SID104193351", "firefly reporter light, replicate 1": 7.13e5, "firefly reporter light, replicate 2": 7.30e5, "Renilla control light, replicate 1": 1.56e6, "Renilla control light, replicate 2": 1.21e6, "Call": "inactive"}
{"gene": "CG34377 (GeneID 42608)", "PubChem SID": "SID104194500", "firefly reporter light, replicate 1": 2.56e5, "firefly reporter light, replicate 2": 3.19e5, "Renilla control light, replicate 1": 3.47e6, "Renilla control light, replicate 2": 4.17e6, "Call": "inactive"}
{"gene": "CG34377 (GeneID 42608)", "PubChem SID": "SID104194501", "firefly reporter light, replicate 1": 2.15e5, "firefly reporter light, replicate 2": 3.14e5, "Renilla control light, replicate 1": 3.54e6, "Renilla control light, replicate 2": 3.72e6, "Call": "inactive"}
{"gene": "CG34377 (GeneID 42608)", "PubChem SID": "SID104194502", "firefly reporter light, replicate 1": 3.17e5, "firefly reporter light, replicate 2": 3.53e5, "Renilla control light, replicate 1": 3.56e6, "Renilla control light, replicate 2": 3.99e6, "Call": "inactive"}
{"gene": "CG34377 (GeneID 42608)", "PubChem SID": "SID104194503", "firefly reporter light, replicate 1": 2.73e5, "firefly reporter light, replicate 2": 2.92e5, "Renilla control light, replicate 1": 3.25e6, "Renilla control light, replicate 2": 3.52e6, "Call": "inactive"}

2 of these entries in another layout.
| gene | PubChem SID | firefly reporter light, replicate 1 | firefly reporter light, replicate 2 | Renilla control light, replicate 1 | Renilla control light, replicate 2 | Call |
| --- | --- | --- | --- | --- | --- | --- |
| CG31760 (GeneID 34642) | SID104205652 | 5.99e5 | 5.46e5 | 6.33e5 | 5.87e5 | inactive |
| CG7300 (GeneID 34472) | SID104182836 | 1.25e6 | 1.51e6 | 2.44e6 | 2.03e6 | inactive |
